From PubChem BioAssay AID248 (DTP/NCI, 2004) come the findings set out here.

Structures are written as SMILES. The list does not hold the whole screen: it gathers tests that were run many times, whatever their T/C, doses with no T/C, and many T/C values between a quarter and a half above the control. Other doses and runs of a compound stand elsewhere. T/C gives the treated animals as a percentage of the vehicle group. Some entries give survivors of the animals treated and no T/C: the source files T/C as zero there, which appears to mark a toxic dose or a test without result, not a measured value. Some survivor counts are full or nearly so, which does not show that the dose was tolerated: the source hardly ever lists a survival T/C far under the control, and the zero likely stands for such cases as well. Survivors were counted at the toxicity check, usually on the fifth day, unless a day is given; later deaths do not show. Schedules are NCI's codes, read here as Q, the interval in days (D) or hours (H), X, the number of doses. Some schedule codes hold Z or #, which are not explained here. Some doses were run more than once; the results are listed from low to high. Where survival is the endpoint, the PubChem record calls one and a half times the control and up active, and a quarter to a half above the control has no call in these data; cut-offs in other NCI protocols can differ. Some T/C values carry the count of animals alive at the toxicity check (mostly the fifth day); without a count, all were alive then.

The experiment deals with L1210 leukemia ip in BDF1 mice, survival T/C. Briefly: NCI In Vivo Anticancer Drug Screen. Data for tumor model L1210 Leukemia (intraperitoneal) in B6D2F1 (BDF1) mice. The settings on record: T/C endpoint: mean survival time, higher T/C = longer survival.
[1] abbreviates: dose: 100.0 mg/kg/injection, schedule: Q01DX009 (ip), vehicle: Klucel (hydroxypropylcellulose) (HPC).
Where [2] appears, read: dose: 200.0 mg/kg/injection, schedule: Q01DX009 (ip), vehicle: Klucel (hydroxypropylcellulose) (HPC).
Where [3] appears, read: dose: 200.0 mg/kg/injection, schedule: Q04DX003 (ip), vehicle: Klucel (hydroxypropylcellulose) (HPC).
Setting [4] is: dose: 400.0 mg/kg/injection, schedule: Q01DX009 (ip), vehicle: Klucel (hydroxypropylcellulose) (HPC).
Where [5] appears, read: dose: 400.0 mg/kg/injection, schedule: Q04DX003 (ip), vehicle: Klucel (hydroxypropylcellulose) (HPC).
[6] abbreviates: dose: 50.0 mg/kg/injection, schedule: Q01DX009 (ip), vehicle: saline with Tween-80.
Setting [7] is: dose: 100.0 mg/kg/injection, schedule: Q01DX009 (ip), vehicle: saline with Tween-80.
Where [8] appears, read: dose: 200.0 mg/kg/injection, schedule: Q04DX002 (ip), vehicle: saline with Tween-80.
Setting [9] is: dose: 200.0 mg/kg/injection, schedule: Q01DX009 (ip), vehicle: saline with Tween-80.
Where [10] appears, read: dose: 200.0 mg/kg/injection, schedule: Q04DX003 (ip), vehicle: saline.
Setting [11] is: dose: 400.0 mg/kg/injection, schedule: Q04DX003 (ip), vehicle: saline with Tween-80.

On to `N#CCNC(=O)c1ccccc1`, for which the survivor count is 0 of 6 under setting [1]; 1 of 6 and 4 of 6 (dose: 100.0 mg/kg/injection, schedule: Q04DX003 (ip), vehicle: Klucel (hydroxypropylcellulose) (HPC)); 0 of 6 under setting [2]; 0 of 6 under setting [3]; 0 of 6 under setting [4]; 0 of 6 under setting [5].
In the case of `Clc1c(Cl)c(Cl)c([S][Pb]([c]2ccccc2)([c]2ccccc2)[c]2ccccc2)c(Cl)c1Cl`, the survivor count is 3 of 3 under setting [6]; 0 of 3 under setting [7]; 3 of 3 under setting [8]; 2 of 3 (dose: 400.0 mg/kg/injection, schedule: Q04DX002 (ip), vehicle: saline with Tween-80).
Regarding `O=C(CC(C(=O)c1ccccc1)c1ccccc1)c1ccccc1` (stereo unspecified), the survivor count under setting [2] is listed as 0 of 6.
`CN(C)CC/C=C1\c2ccccc2CCSc2ccccc21`: the survivor count is, setting by setting: under setting [3], 0 of 6; under setting [5], 0 of 6.
Consider `CCOC(=O)/C=C1\CCCc2ccc(Cl)cc21`, for which, under setting [8], the survivor count is 3 of 3.
Consider `COc1ccc(S(=O)(=O)N=[N+]=[N-])cc1`, for which the survivor count (dose: 400.0 mg/kg/injection, schedule: Q01DX001 (ip), vehicle: saline) was 3 of 6.
With `O=NN(CCCl)C(=O)C1CCC(C(=O)N(CCCl)N=O)CC1` (stereo unspecified), the T/C was 125 % of control (dose: 1.0 mg/kg/injection, schedule: Q01DX001 (ip), vehicle: carboxymethylcellulose (CMC)); 138 % of control (dose: 2.0 mg/kg/injection, schedule: Q01DX001 (ip), vehicle: carboxymethylcellulose (CMC)); 146 % of control (dose: 4.0 mg/kg/injection, schedule: Q01DX001 (ip), vehicle: carboxymethylcellulose (CMC)); 128 % of control (dose: 5.0 mg/kg/injection, schedule: Q01DX001 (ip), vehicle: carboxymethylcellulose (CMC)); 131 % of control [4 of 6 alive] (dose: 46.0 mg/kg/injection, schedule: Q01DX001 (ip), vehicle: carboxymethylcellulose (CMC)). Further, the survivor count by setting is: (dose: 93.0 mg/kg/injection, schedule: Q01DX001 (ip), vehicle: carboxymethylcellulose (CMC)) 5 of 6; (dose: 125.0 mg/kg/injection, schedule: Q01DX001 (ip), vehicle: carboxymethylcellulose (CMC)) 5 of 6; (dose: 187.0 mg/kg/injection, schedule: Q01DX001 (ip), vehicle: carboxymethylcellulose (CMC)) 3 of 6; (dose: 250.0 mg/kg/injection, schedule: Q01DX001 (ip), vehicle: carboxymethylcellulose (CMC)) 2 of 6; (dose: 375.0 mg/kg/injection, schedule: Q01DX001 (ip), vehicle: carboxymethylcellulose (CMC)) 0 of 6; (dose: 500.0 mg/kg/injection, schedule: Q01DX001 (ip), vehicle: carboxymethylcellulose (CMC)) 0 of 6.
As for `Cc1cccc2c(C(=O)O)cc(-c3ccc(Cl)cc3)nc12`, the survivor count under setting [7] is given as 5 of 6 and the survivor count under setting [9] is on record as 6 of 6.
Consider `CC(=O)Nc1ccc(N)cc1N`, for which the survivor count under setting [10] is listed as 3 of 3.
With `C[N+](C)(C)c1ccc(/C=N\NC(=O)c2ccccc2)cc1`, the survivor count by setting is: under setting [1], 2 of 6; under setting [2], 0 of 6; under setting [4], 0 of 6.
As for `COC(=O)c1ccc[n+](CCc2ccc(OC)c(OC)c2)c1`, the survivor count (dose: 150.0 mg/kg/injection, schedule: Q01DX001 (ip), vehicle: saline) is on record as 3 of 6 and the survivor count (dose: 300.0 mg/kg/injection, schedule: Q01DX001 (ip), vehicle: saline) is 0 of 6.
In the case of `COc1cccc(C(=O)C=C(C(F)(F)F)C(F)(F)F)c1`, the survivor count by setting is: (dose: 100.0 mg/kg/injection, schedule: Q04DX003 (ip), vehicle: saline with Tween-80) 2 of 6; (dose: 200.0 mg/kg/injection, schedule: Q04DX003 (ip), vehicle: saline with Tween-80) 4 of 6; under setting [11], 0 of 6.
With `CC(C)CCOP(=S)(N1CC1)N1CC1`, the T/C (dose: 7.5 mg/kg/injection, schedule: Q01DX015 (ip), vehicle: carboxymethylcellulose (CMC)) was 129 % of control; the T/C (dose: 15.0 mg/kg/injection, schedule: Q01DX015 (ip), vehicle: carboxymethylcellulose (CMC)) is 140 % of control; the T/C (dose: 30.0 mg/kg/injection, schedule: Q01DX015 (ip), vehicle: carboxymethylcellulose (CMC)) is 142 % of control; the T/C (dose: 60.0 mg/kg/injection, schedule: Q01DX015 (ip), vehicle: carboxymethylcellulose (CMC)) is 134 % of control [5 of 6 alive]; the T/C (dose: 66.6 mg/kg/injection, schedule: Q01DX001 (ip), vehicle: carboxymethylcellulose (CMC)) was 125 % of control; the T/C (dose: 100.0 mg/kg/injection, schedule: Q01DX001 (ip), vehicle: carboxymethylcellulose (CMC)) was 139 % of control. In addition, the T/C by setting is: (dose: 120.0 mg/kg/injection, schedule: Q01DX015 (ip), vehicle: carboxymethylcellulose (CMC)) 127 % of control; (dose: 150.0 mg/kg/injection, schedule: Q01DX001 (ip), vehicle: carboxymethylcellulose (CMC)) 146 % of control; (dose: 200.0 mg/kg/injection, schedule: Q01DX001 (ip), vehicle: carboxymethylcellulose (CMC)) 148 % of control. For the same compound, the survivor count reads like this: (dose: 240.0 mg/kg/injection, schedule: Q01DX015 (ip), vehicle: carboxymethylcellulose (CMC)) 5 of 6; (dose: 400.0 mg/kg/injection, schedule: Q01DX001 (ip), vehicle: carboxymethylcellulose (CMC)) 3 of 4.
Take `CC(C)=C1CCC(C)C/C1=N\N=C(N)N` (stereo unspecified): the survivor count is, setting by setting: (dose: 120.0 mg/kg/injection, schedule: Q01DX Z (ip), vehicle: carboxymethylcellulose (CMC)) 0 of 6; (dose: 960.0 mg/kg/injection, schedule: Q01DX Z (oral), vehicle: carboxymethylcellulose (CMC)) 0 of 6.
For `Clc1ccc(-c2cc(=[N+]3CCCCC3)ss2)cc1`, the survivor count is reported as 0 of 6 under setting [6]; 2 of 6 under setting [9]; 0 of 6 (dose: 300.0 mg/kg/injection, schedule: Q01DX009 (ip), vehicle: saline with Tween-80); 0 of 6 under setting [11].
As for `CCCCOc1ccc(N)cn1`, the survivor count is reported as 6 of 6 under setting [10] and 0 of 6 (dose: 400.0 mg/kg/injection, schedule: Q04DX003 (ip), vehicle: saline).
Turning to `OC(C1CO1)(C(F)(F)F)C(F)(F)F` (stereo unspecified), under “dose: 400.0 mg/kg/injection, schedule: Q01DX009 (ip), vehicle: saline”, the survivor count is listed as 4 of 6.
Consider `CCN(CC)c1ccc(N=Cc2ccccc2S(=O)(=O)O)cc1`, for which the survivor count is listed as 4 of 6 (dose: 100.0 mg/kg/injection, schedule: Q04DX003 (ip), vehicle: saline sonified); 1 of 6 (dose: 200.0 mg/kg/injection, schedule: Q04DX003 (ip), vehicle: saline sonified); 0 of 6 (dose: 400.0 mg/kg/injection, schedule: Q04DX003 (ip), vehicle: saline sonified).
On to `N#CCCN(CCCN1CCOCC1)C(=S)Nc1cccc(C(F)(F)F)c1`, for which the survivor count under setting [8] is 3 of 3.
Consider `CCOP(=O)(OCC)Oc1ccc(SC)cc1`, for which the survivor count is listed as 0 of 6 (dose: 20.0 mg/kg/injection, schedule: Q01DX001 (ip), vehicle: saline); 0 of 6 (dose: 40.0 mg/kg/injection, schedule: Q01DX001 (ip), vehicle: saline); 0 of 6 (dose: 80.0 mg/kg/injection, schedule: Q01DX001 (ip), vehicle: saline).
Consider `COC1(C)C(=O)Oc2c1c1ccccc1c1ccccc21` (stereo unspecified), for which the survivor count (dose: 300.0 mg/kg/injection, schedule: Q01DX001 (ip), vehicle: carboxymethylcellulose (CMC)) is on record as 6 of 6.
Consider `COc1ccc2c3c1OC1C(O)CCC4C(C2)N(C)CCC341` (stereo unspecified), for which the survivor count (dose: 400.0 mg/kg/injection, schedule: Q01DX001 (ip), vehicle: saline with Tween-80) is given as 1 of 3.
